In data set [1] the test system is obese domestic cats with diabetes. The following applies: individual diabetic cats #1-#5 on glargine insulin; 1.25 mg donepezil orally daily, 14 day period. The method, then: Five obese domestic cats with diabetes (average weight 14.2 lbs.) are on glargine insulin for glycemic control. […] All cats are being treated with glargine insulin in bid dosing schedule. […] Over a 14 day period morning blood glucose levels (prior to feeding) are recorded.

Data set [2] has as its system horses with physical characteristics of EMS.
[3] abbreviates: 4 EMS horses, 4 week treatment 75 mg daily.

SMILES strings stand for the structures.

As for `COc1cc2c(cc1OC)C(=O)C(CC1CCN(Cc3ccccc3)CC1)C2` (stereo not drawn) [donepezil], in data set [1], the “Morning blood glucose levels (prior to feeding) during treatment” value was 108 to 126 mg/dL. In data set [2] (4 EMS horses after 4 weeks 75 mg daily, 0.1 IU/kg IV insulin), the “Hypoglycemic symptoms (sweating, agitation) after insulin” value is “No hypoglycemic symptoms are observed”. For the same compound, the “Behavior of animals or feeding habits” value in data set [2] (4 EMS horses, 75 mg daily for 4 weeks) is reported as “No changes are observed”. In data set [2] (setting [3]), the “Fasting blood glucose levels decreased on average” value is recorded as 25% and the “Insulin sensitivity increased on average” value stood at 52%. Also, the “Insulin sensitivity (in words)” value in data set [2] (after 4 week treatment) is “significantly improved”.

The values above are taken from patent US20160166581A1 (priority 2014, published 2016).
